# Patent publication US20110065632A1 (priority 2008, published 2011)
# Experiment: general procedure: Fmoc solid-phase peptide synthesis; Rink Amide MBHA; DIC/HOBt (double coupling); PyBrop/HOAT/pentafluorophenol/DMAP/DIEA for Dop2-OH
# Settings: whole synthesis, analytical HPLC, scale 50 umol
substance,measurement,value
Dop2-DLys (Dop2)-cyclo[Cys-Tyr-DTrp-Lys-Abu-Cys]-Thr-NH2,final HPLC purity,99.99%
